Here are results for seven molecules from PMC10911177, “Exploring the ATG9A interactome uncovers interaction with VPS13A” (Journal of cell science, 2024).

The chains behind the UniProt entries cited, without tags or fusion partners.
UniProt Q96RL7: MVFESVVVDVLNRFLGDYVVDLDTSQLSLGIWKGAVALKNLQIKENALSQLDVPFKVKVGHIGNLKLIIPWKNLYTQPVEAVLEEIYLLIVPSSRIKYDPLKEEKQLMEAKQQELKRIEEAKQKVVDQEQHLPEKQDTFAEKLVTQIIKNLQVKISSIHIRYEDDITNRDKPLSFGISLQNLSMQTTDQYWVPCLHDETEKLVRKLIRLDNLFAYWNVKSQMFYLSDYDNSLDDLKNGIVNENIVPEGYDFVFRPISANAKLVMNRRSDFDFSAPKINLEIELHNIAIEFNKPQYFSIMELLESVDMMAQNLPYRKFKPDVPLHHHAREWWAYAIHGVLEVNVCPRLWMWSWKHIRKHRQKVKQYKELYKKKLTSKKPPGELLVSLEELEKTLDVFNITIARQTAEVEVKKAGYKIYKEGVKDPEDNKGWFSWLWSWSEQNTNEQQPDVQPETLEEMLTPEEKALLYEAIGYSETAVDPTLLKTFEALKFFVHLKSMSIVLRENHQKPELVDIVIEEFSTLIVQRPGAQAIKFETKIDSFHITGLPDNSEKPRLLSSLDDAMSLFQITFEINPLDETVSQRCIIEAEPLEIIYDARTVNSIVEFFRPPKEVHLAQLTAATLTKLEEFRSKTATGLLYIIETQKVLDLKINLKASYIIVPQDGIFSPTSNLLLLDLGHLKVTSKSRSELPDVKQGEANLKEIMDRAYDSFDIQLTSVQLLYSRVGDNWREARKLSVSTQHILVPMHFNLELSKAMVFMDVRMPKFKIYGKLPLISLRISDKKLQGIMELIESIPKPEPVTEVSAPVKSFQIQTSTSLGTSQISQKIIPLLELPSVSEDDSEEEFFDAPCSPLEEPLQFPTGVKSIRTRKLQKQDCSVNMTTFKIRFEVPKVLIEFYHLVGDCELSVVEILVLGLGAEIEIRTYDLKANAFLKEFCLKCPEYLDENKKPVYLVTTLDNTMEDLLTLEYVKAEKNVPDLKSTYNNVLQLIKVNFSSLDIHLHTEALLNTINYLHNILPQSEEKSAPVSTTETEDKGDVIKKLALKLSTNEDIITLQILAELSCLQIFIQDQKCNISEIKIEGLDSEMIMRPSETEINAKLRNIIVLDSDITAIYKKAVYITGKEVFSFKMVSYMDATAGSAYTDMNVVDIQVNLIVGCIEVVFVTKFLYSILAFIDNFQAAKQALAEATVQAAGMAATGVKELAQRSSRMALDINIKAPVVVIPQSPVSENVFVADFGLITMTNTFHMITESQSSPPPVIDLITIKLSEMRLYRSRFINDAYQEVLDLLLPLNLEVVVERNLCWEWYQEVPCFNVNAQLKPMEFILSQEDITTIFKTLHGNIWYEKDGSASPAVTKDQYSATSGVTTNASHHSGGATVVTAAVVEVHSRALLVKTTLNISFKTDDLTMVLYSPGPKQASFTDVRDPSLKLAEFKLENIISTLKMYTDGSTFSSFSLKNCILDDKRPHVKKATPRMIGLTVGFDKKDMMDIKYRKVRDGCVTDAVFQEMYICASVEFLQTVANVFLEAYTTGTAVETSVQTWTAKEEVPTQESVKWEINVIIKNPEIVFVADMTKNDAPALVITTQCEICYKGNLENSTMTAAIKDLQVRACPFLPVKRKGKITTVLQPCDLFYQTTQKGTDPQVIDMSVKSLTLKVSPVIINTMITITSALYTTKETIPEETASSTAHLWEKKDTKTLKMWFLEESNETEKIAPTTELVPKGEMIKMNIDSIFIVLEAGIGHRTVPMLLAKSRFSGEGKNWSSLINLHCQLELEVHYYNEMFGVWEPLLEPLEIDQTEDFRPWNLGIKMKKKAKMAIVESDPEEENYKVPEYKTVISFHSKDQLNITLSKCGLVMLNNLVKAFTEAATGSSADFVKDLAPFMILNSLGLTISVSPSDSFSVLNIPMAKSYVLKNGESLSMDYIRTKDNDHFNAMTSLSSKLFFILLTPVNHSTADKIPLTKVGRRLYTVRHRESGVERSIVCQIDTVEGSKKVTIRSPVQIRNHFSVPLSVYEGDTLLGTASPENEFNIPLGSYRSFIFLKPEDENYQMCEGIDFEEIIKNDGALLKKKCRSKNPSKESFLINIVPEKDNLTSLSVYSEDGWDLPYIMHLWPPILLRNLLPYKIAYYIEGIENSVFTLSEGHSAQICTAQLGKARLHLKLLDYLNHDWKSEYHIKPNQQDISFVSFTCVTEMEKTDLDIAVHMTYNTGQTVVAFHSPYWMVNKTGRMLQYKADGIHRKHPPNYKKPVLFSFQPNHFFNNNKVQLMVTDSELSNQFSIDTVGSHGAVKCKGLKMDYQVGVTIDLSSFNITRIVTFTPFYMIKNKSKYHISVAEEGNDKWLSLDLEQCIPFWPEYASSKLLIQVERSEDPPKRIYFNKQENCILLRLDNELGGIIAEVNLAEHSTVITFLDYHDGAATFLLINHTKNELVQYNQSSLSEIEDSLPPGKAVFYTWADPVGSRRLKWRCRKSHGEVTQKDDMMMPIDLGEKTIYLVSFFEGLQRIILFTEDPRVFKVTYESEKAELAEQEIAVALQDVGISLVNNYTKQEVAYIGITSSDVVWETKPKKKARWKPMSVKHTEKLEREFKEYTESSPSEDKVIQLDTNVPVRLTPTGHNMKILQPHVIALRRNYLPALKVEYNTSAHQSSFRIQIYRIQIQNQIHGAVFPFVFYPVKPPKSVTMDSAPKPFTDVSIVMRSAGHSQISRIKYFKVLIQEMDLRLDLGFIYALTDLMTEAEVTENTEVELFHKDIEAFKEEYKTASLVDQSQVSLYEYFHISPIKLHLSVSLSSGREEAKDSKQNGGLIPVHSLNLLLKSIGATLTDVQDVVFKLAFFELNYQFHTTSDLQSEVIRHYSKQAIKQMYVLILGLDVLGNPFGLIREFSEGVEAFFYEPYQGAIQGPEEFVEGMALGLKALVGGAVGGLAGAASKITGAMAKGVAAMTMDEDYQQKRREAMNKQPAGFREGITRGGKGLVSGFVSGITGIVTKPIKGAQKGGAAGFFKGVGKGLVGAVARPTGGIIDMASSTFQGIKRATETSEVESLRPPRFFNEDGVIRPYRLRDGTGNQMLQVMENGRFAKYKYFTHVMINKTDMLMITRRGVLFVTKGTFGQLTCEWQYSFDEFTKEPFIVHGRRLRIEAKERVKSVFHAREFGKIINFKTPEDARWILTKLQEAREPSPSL
UniProt O95573: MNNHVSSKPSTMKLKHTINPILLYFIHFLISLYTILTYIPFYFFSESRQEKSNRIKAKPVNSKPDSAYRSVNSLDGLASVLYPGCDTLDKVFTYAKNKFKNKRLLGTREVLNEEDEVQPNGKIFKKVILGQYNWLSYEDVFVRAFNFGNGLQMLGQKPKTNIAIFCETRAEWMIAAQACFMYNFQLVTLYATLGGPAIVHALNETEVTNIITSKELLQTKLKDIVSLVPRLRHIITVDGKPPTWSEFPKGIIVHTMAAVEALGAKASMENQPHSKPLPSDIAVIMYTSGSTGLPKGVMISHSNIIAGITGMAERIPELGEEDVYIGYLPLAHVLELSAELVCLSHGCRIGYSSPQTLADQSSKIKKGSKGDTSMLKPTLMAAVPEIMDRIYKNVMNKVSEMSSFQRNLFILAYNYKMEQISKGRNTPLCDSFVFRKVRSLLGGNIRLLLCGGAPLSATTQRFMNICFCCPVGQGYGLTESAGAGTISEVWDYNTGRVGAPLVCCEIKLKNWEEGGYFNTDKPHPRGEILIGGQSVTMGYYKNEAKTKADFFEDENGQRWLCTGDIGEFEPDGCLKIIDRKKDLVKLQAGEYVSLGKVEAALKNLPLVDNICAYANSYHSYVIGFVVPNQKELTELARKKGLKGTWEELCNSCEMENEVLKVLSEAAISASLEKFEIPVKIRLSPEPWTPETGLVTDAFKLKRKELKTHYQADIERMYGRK

These are yes or no findings as the source states them, for the method shown. Binding seen in cells or lysates may run through a third protein. Here binding means that the protein was enriched with, or labelled near, the bait; the list need not be complete.

First the molecules themselves.
B1: ACSL1 (endogenous) (protein, UniProt P33121 1-698)
chain: MQAHELFRYFRMPELVDFRQYVRTLPTNTLMGFGAFAALTTFWYATRPKPLKPPCDLSMQSVEVAGSGGARRSALLDSDEPLVYFYDDVTTLYEGFQRGIQVSNNGPCLGSRKPDQPYEWLSYKQVAELSECIGSALIQKGFKTAPDQFIGIFAQNRPEWVIIEQGCFAYSMVIVPLYDTLGNEAITYIVNKAELSLVFVDKPEKAKLLLEGVENKLIPGLKIIVVMDAYGSELVERGQRCGVEVTSMKAMEDLGRANRRKPKPPAPEDLAVICFTSGTTGNPKGAMVTHRNIVSDCSAFVKATENTVNPCPDDTLISFLPLAHMFERVVECVMLCHGAKIGFFQGDIRLLMDDLKVLQPTVFPVVPRLLNRMFDRIFGQANTTLKRWLLDFASKRKEAELRSGIIRNNSLWDRLIFHKVQSSLGGRVRLMVTGAAPVSATVLTFLRAALGCQFYEGYGQTECTAGCCLTMPGDWTAGHVGAPMPCNLIKLVDVEEMNYMAAEGEGEVCVKGPNVFQGYLKDPAKTAEALDKDGWLHTGDIGKWLPNGTLKIIDRKKHIFKLAQGEYIAPEKIENIYMRSEPVAQVFVHGESLQAFLIAIVVPDVETLCSWAQKRGFEGSFEELCRNKDVKKAILEDMVRLGKDSGLKPFEQVKGITLHPELFSIDNGLLTPTMKAKRPELRNYFRSQIDDLYSTIKV
B2: Flotilin-2 (protein, UniProt Q14254 1-428)
chain: MGNCHTVGPNEALVVSGGCCGSDYKQYVFGGWAWAWWCISDTQRISLEIMTLQPRCEDVETAEGVALTVTGVAQVKIMTEKELLAVACEQFLGKNVQDIKNVVLQTLEGHLRSILGTLTVEQIYQDRDQFAKLVREVAAPDVGRMGIEILSFTIKDVYDKVDYLSSLGKTQTAVVQRDADIGVAEAERDAGIREAECKKEMLDVKFMADTKIADSKRAFELQKSAFSEEVNIKTAEAQLAYELQGAREQQKIRQEEIEIEVVQRKKQIAVEAQEILRTDKELIATVRRPAEAEAHRIQQIAEGEKVKQVLLAQAEAEKIRKIGEAEAAVIEAMGKAEAERMKLKAEAYQKYGDAAKMALVLEALPQIAAKIAAPLTKVDEIVVLSGDNSKVTSEVNRLLAELPASVHALTGVDLSKIPLIKKATGVQV
B3: Flotilin-1 (protein, UniProt O75955 1-427)
chain: MFFTCGPNEAMVVSGFCRSPPVMVAGGRVFVLPCIQQIQRISLNTLTLNVKSEKVYTRHGVPISVTGIAQVKIQGQNKEMLAAACQMFLGKTEAEIAHIALETLEGHQRAIMAHMTVEEIYKDRQKFSEQVFKVASSDLVNMGISVVSYTLKDIHDDQDYLHSLGKARTAQVQKDARIGEAEAKRDAGIREAKAKQEKVSAQYLSEIEMAKAQRDYELKKAAYDIEVNTRRAQADLAYQLQVAKTKQQIEEQRVQVQVVERAQQVAVQEQEIARREKELEARVRKPAEAERYKLERLAEAEKSQLIMQAEAEAASVRMRGEAEAFAIGARARAEAEQMAKKAEAFQLYQEAAQLDMLLEKLPQVAEEISGPLTSANKITLVSSGSGTMGAAKVTGEVLDILTRLPESVERLTGVSISQVNHKPLRTA
B4: cancer-related nucleoside-triphosphatase (protein, UniProt Q9BSD7 1-190)
chain: MARHVFLTGPPGVGKTTLIHKASEVLKSSGVPVDGFYTEEVRQGGRRIGFDVVTLSGTRGPLSRVGLEPPPGKRECRVGQYVVDLTSFEQLALPVLRNADCSSGPGQRVCVIDEIGKMELFSQLFIQAVRQTLSTPGTIILGTIPVPKGKPLALVEEIRNRKDVKVFNVTKENRNHLLPDIVTCVQSSRK

The target in the assay is T1, ATG9A (endogenous) (human (endogenous in HEK293A)) (UniProt Q7Z3C6).
T1 sequence: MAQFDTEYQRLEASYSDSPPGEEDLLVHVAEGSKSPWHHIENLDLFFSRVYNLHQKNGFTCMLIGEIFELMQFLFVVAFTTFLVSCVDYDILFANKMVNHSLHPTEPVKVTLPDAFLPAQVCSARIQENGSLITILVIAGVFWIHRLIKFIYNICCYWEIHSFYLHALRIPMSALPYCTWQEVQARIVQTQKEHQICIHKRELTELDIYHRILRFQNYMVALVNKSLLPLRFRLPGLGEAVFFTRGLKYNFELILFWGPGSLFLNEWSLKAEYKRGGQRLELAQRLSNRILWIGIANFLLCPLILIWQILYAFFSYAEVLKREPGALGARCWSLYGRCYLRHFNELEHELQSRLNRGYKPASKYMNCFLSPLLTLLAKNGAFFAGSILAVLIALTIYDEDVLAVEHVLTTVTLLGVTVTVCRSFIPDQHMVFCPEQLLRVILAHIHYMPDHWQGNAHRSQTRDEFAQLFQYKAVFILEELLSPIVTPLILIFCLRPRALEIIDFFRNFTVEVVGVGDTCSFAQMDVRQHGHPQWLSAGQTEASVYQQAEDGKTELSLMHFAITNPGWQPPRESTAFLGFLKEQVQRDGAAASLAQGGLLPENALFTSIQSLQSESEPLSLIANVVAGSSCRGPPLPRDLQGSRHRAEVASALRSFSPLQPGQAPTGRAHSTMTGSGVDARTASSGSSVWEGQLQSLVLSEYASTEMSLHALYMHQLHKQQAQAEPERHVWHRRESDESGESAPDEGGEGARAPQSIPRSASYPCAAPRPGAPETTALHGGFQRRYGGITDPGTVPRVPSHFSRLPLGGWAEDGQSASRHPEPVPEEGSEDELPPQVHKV
In words: affinity purification with mass spectrometry; IP of endogenous ATG9A with Armenian hamster anti-ATG9A on protein A Dynabeads after solubilisation in 1% Triton X-100 or 1% LMNG; control hamster IgM; LC-MS/MS, LFQ.
“VPS13C (endogenous) (from UniProt Q709C8 1-3753)”: the binding result is “binds”.

Regarding “VPS13A (endogenous) (from UniProt Q96RL7 1-3174)”, the binding entry is “binds”.

For the molecule “ACSL3 (endogenous) (from UniProt O95573 1-720)”, the binding result is “binds”.

Take B1: the binding entry was “binds”.

For B2, the binding entry is on record as “binds”.

Turning to B3, the binding result was “binds”.

For the molecule B4, the binding entry is “binds”.
